Source: patent US20210123065
The exact form of at least one protein or probe is not confirmed.

Test system: Bxb1 integrase (Mycobacteriophage Bxb1)
Assay: activity in cells
Details: attL x attR excision with gp47 RDF co-expressed; integrations stable >100 generations without gp47 (p95); protein in cells; only the site is given

Sequence: GGTTTGTCTGGTCAACCACCGCGGTCTCCGTCGTCAGGATCATCG (double strand) [Bxb1 attR junction]
- activity on this sequence: active
